Data published in paper PMC8486843, “SPOP mutation induces replication over-firing by impairing Geminin ubiquitination and triggers replication catastrophe upon ATR inhibition” (Nature Communications, 2021).
No constants are given. Whether binding was seen depends on the method and setting. Binding seen in cells or lysates may run through a third protein. Some results given as binding are weak or reduced against the parent protein; the word gives no strength. For some assays here: Tags and fused reporters may be left off the sequences shown. Each block holds one molecule with its values, some of them ahead of it.

Sequences of proteins named here, by UniProt entry; tags and fusion partners are left off. A change or cut given only in a name is not applied to a line headed by its entry.
UniProt O43791: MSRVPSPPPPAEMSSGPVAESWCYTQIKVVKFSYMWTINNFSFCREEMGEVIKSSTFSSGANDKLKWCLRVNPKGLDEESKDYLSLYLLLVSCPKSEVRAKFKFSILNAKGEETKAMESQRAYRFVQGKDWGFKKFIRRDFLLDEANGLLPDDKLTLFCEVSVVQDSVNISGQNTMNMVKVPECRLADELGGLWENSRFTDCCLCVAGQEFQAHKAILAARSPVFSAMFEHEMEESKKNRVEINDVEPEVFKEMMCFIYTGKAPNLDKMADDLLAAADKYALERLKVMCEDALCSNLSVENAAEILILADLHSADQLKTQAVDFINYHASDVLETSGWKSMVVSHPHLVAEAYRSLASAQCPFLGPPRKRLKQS
UniProt P49736: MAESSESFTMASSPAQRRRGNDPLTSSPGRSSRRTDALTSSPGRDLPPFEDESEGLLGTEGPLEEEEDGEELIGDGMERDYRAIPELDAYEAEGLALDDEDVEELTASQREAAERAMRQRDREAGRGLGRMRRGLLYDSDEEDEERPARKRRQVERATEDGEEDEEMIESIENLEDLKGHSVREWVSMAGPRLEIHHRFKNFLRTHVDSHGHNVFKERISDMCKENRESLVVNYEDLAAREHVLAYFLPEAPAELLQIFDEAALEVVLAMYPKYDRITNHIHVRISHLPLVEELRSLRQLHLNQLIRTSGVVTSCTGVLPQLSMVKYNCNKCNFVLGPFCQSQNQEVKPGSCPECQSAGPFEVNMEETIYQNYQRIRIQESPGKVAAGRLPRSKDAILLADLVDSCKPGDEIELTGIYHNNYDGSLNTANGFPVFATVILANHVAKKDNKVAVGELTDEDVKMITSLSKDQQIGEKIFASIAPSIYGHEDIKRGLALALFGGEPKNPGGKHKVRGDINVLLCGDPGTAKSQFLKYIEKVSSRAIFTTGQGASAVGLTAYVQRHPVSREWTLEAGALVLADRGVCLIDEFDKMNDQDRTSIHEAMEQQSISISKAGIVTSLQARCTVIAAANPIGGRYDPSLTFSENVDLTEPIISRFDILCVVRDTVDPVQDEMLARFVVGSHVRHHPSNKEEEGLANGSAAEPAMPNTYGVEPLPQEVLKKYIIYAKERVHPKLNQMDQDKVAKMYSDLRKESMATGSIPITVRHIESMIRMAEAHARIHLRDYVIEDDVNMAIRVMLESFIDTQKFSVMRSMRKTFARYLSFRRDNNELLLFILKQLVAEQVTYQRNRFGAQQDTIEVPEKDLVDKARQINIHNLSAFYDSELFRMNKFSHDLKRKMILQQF

What was measured:
[1] = target: T1, Flag-Geminin WT (human) (UniProt O75496); experiment: co-IP; 293T cells co-transfected with Flag-Geminin (WT or mutant) and SPOP (WT or mutant) (Fig. 1g, 3b, 3d, 3g)
T1 sequence: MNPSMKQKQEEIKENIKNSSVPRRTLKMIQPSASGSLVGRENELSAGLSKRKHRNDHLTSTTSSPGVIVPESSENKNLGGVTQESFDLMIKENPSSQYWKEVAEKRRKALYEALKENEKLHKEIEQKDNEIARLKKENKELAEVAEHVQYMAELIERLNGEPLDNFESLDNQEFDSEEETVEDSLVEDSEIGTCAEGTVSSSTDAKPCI

[2] = target: T2, GST-Geminin (human) (UniProt O75496); experiment: pull-down; in vitro translated protein with GST-Geminin purified from E. coli (Supplementary Fig. 1l, 3l); only the target purified
T2 sequence: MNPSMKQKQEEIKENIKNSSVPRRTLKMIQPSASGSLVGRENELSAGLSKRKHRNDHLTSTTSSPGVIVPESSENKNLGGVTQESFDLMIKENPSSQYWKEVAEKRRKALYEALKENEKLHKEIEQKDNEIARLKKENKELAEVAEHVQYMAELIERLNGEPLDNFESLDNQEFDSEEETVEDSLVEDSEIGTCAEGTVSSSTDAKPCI

[3] = target: T3, Geminin mutant lacking the Cdt1-binding region (amino acids 82-160) (human) (UniProt O75496); experiment: co-IP; Geminin mutant lacking residues 82-160 (Supplementary Fig. 1k); cells and tags not shown
T3 sequence: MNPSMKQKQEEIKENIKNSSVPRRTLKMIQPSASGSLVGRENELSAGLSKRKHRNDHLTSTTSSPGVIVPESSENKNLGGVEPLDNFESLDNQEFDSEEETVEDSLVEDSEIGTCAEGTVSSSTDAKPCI

[4] = target: T4, Geminin SBC deletion mutant (deletion of 199VSSST203) (human) (UniProt O75496); experiment: co-IP; 293T cells co-transfected with Flag-Geminin (WT or mutant) and SPOP (WT or mutant) (Fig. 1g, 3b, 3d, 3g)
T4 sequence: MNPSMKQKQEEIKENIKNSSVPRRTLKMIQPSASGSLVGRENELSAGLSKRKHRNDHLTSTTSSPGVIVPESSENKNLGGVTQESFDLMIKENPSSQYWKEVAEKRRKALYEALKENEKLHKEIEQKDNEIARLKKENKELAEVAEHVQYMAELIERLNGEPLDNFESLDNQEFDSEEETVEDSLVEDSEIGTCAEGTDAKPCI

[5] = target: T5, Flag-Geminin S202F mutant (human) (UniProt O75496); experiment: as above
T5 sequence: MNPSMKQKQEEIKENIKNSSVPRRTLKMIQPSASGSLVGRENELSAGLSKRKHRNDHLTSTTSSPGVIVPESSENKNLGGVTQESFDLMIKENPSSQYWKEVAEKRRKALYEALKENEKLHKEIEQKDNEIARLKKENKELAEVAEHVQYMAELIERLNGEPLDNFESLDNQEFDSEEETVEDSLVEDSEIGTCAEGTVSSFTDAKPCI

[6] = target: T6, ectopically expressed Cdt1 (human) (UniProt Q9H211); experiment: co-IP; ectopically expressed Geminin and Cdt1, with transient expression of SPOP mutants F102C and F133V (Supplementary Fig. 3a)
T6 sequence: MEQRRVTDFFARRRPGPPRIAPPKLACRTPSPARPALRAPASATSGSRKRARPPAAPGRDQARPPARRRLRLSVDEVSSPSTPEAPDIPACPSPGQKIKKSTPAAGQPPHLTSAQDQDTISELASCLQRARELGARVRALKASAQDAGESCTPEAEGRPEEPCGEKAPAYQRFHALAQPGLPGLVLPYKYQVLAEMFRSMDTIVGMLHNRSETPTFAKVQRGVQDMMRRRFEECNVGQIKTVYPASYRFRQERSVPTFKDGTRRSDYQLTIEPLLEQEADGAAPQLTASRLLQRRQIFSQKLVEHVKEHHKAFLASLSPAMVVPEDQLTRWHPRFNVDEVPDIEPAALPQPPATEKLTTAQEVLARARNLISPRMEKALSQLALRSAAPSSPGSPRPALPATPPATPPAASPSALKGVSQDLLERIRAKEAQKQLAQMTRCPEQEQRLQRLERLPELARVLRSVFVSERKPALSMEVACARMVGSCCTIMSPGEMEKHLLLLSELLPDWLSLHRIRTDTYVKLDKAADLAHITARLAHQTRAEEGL

[7] = target: T7, Cdt1 (co-IPs of Supplementary Fig. 1k and 3c) (human) (UniProt Q9H211); experiment: co-IP; Geminin WT and Lys100/Lys127 mutants with Cdt1 (Supplementary Fig. 3c); cells and tags not shown
T7 sequence: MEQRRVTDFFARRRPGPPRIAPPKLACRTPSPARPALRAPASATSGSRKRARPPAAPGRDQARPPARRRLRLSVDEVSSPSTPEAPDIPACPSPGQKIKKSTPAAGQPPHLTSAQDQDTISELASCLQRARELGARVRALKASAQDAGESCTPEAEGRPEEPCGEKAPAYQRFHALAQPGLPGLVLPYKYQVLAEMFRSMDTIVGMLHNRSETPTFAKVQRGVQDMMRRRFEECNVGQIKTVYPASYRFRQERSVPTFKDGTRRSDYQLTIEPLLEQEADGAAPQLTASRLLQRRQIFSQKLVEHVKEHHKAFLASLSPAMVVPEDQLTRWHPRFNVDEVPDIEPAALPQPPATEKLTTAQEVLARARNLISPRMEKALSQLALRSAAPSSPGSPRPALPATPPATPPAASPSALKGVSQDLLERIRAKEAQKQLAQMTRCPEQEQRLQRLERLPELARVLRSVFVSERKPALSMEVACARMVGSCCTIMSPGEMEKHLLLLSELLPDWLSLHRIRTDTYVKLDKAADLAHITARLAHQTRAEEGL

[8] = target: T8, endogenous Cdt1 (human (endogenous in 293T, PC-3, BPH1, DU145)) (UniProt Q9H211); experiment: co-IP; endogenous proteins in BPH1 and DU145 cells with stable expression of SPOP F133V (Supplementary Fig. 3b)
T8 sequence: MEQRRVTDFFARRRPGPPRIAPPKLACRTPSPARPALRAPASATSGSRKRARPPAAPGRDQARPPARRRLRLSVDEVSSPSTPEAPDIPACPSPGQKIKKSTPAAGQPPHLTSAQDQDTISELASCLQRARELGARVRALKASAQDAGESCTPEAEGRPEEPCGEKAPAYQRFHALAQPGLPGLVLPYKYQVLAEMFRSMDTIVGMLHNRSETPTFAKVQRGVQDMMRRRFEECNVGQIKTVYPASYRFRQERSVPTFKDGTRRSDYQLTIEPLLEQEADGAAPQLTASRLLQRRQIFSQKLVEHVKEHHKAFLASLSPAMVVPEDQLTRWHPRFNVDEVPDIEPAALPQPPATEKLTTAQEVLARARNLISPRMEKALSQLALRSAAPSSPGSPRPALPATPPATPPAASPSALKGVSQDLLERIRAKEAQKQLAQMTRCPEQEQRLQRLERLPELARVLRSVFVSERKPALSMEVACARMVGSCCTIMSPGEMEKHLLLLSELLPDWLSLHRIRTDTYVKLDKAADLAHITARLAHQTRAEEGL

[9] = target: T8, endogenous Cdt1 (human (endogenous in 293T, PC-3, BPH1, DU145)); experiment: co-IP; PC-3 cells infected with lentivirus for shRNAs, WT or mutated Geminin, or SPOP mutants (Fig. 4a, b)
[10] = target: endogenous SPOP (human (endogenous in PC-3)) (UniProt O43791); experiment: co-IP; endogenous proteins in PC-3 cells (Fig. 1e)
[11] = target: Myc-SPOP WT (human) (UniProt O43791); experiment: co-IP; 293T cells transfected with Myc-SPOP; endogenous partners detected by blot (Fig. 1d)

binding [1]: no binding
Molecule: SPOP F133V (from UniProt O43791 1-374)

binding [2]: no binding
Molecule: in vitro translated MCM2 protein (from UniProt P49736 1-904)

binding [2]: binds
Molecule: in vitro translated SPOP (from UniProt O43791 1-374)

binding [1]: no binding
Molecule: SPOP F102C (from UniProt O43791 1-374)

binding [3]: binds
binding [4]: no binding
binding [5]: no binding
binding [1]: binds
Molecule: Myc-SPOP WT (from UniProt O43791 1-374)

binding [6]: binds
binding [7]: binds
B1: Flag-Geminin WT (protein, UniProt O75496 1-209)
chain: MNPSMKQKQEEIKENIKNSSVPRRTLKMIQPSASGSLVGRENELSAGLSKRKHRNDHLTSTTSSPGVIVPESSENKNLGGVTQESFDLMIKENPSSQYWKEVAEKRRKALYEALKENEKLHKEIEQKDNEIARLKKENKELAEVAEHVQYMAELIERLNGEPLDNFESLDNQEFDSEEETVEDSLVEDSEIGTCAEGTVSSSTDAKPCI

binding [7]: binds
B2: Geminin K100R mutant (protein, UniProt O75496 1-209)
chain: MNPSMKQKQEEIKENIKNSSVPRRTLKMIQPSASGSLVGRENELSAGLSKRKHRNDHLTSTTSSPGVIVPESSENKNLGGVTQESFDLMIKENPSSQYWREVAEKRRKALYEALKENEKLHKEIEQKDNEIARLKKENKELAEVAEHVQYMAELIERLNGEPLDNFESLDNQEFDSEEETVEDSLVEDSEIGTCAEGTVSSSTDAKPCI

binding [8]: binds
binding [9]: binds
binding [10]: binds
binding [11]: binds
B3: endogenous Geminin (protein, UniProt O75496 1-209)
chain: MNPSMKQKQEEIKENIKNSSVPRRTLKMIQPSASGSLVGRENELSAGLSKRKHRNDHLTSTTSSPGVIVPESSENKNLGGVTQESFDLMIKENPSSQYWKEVAEKRRKALYEALKENEKLHKEIEQKDNEIARLKKENKELAEVAEHVQYMAELIERLNGEPLDNFESLDNQEFDSEEETVEDSLVEDSEIGTCAEGTVSSSTDAKPCI

binding [7]: binds
B4: Geminin K100R/K127R mutant (protein, UniProt O75496 1-209)
chain: MNPSMKQKQEEIKENIKNSSVPRRTLKMIQPSASGSLVGRENELSAGLSKRKHRNDHLTSTTSSPGVIVPESSENKNLGGVTQESFDLMIKENPSSQYWREVAEKRRKALYEALKENEKLHKEIEQRDNEIARLKKENKELAEVAEHVQYMAELIERLNGEPLDNFESLDNQEFDSEEETVEDSLVEDSEIGTCAEGTVSSSTDAKPCI

binding [10]: binds
binding [11]: binds
B5: endogenous Cdt1 (protein, UniProt Q9H211 1-546)
chain: MEQRRVTDFFARRRPGPPRIAPPKLACRTPSPARPALRAPASATSGSRKRARPPAAPGRDQARPPARRRLRLSVDEVSSPSTPEAPDIPACPSPGQKIKKSTPAAGQPPHLTSAQDQDTISELASCLQRARELGARVRALKASAQDAGESCTPEAEGRPEEPCGEKAPAYQRFHALAQPGLPGLVLPYKYQVLAEMFRSMDTIVGMLHNRSETPTFAKVQRGVQDMMRRRFEECNVGQIKTVYPASYRFRQERSVPTFKDGTRRSDYQLTIEPLLEQEADGAAPQLTASRLLQRRQIFSQKLVEHVKEHHKAFLASLSPAMVVPEDQLTRWHPRFNVDEVPDIEPAALPQPPATEKLTTAQEVLARARNLISPRMEKALSQLALRSAAPSSPGSPRPALPATPPATPPAASPSALKGVSQDLLERIRAKEAQKQLAQMTRCPEQEQRLQRLERLPELARVLRSVFVSERKPALSMEVACARMVGSCCTIMSPGEMEKHLLLLSELLPDWLSLHRIRTDTYVKLDKAADLAHITARLAHQTRAEEGL

binding [9]: binds
B6: endogenous ORC2 (protein, UniProt Q13416 1-577)
chain: MSKPELKEDKMLEVHFVGDDDVLNHILDREGGAKLKKERAQLLVNPKKIIKKPEYDLEEDDQEVLKDQNYVEIMGRDVQESLKNGSATGGGNKVYSFQNRKHSEKMAKLASELAKTPQKSVSFSLKNDPEITINVPQSSKGHSASDKVQPKNNDKSEFLSTAPRSLRKRLIVPRSHSDSESEYSASNSEDDEGVAQEHEEDTNAVIFSQKIQAQNRVVSAPVGKETPSKRMKRDKTSDLVEEYFEAHSSSKVLTSDRTLQKLKRAKLDQQTLRNLLSKVSPSFSAELKQLNQQYEKLFHKWMLQLHLGFNIVLYGLGSKRDLLERFRTTMLQDSIHVVINGFFPGISVKSVLNSITEEVLDHMGTFRSILDQLDWIVNKFKEDSSLELFLLIHNLDSQMLRGEKSQQIIGQLSSLHNIYLIASIDHLNAPLMWDHAKQSLFNWLWYETTTYSPYTEETSYENSLLVKQSGSLPLSSLTHVLRSLTPNARGIFRLLIKYQLDNQDNPSYIGLSFQDFYQQCREAFLVNSDLTLRAQLTEFRDHKLIRTKKGTDGVEYLLIPVDNGTLTDFLEKEEEEA

binding [9]: binds
B7: endogenous CDC6 (protein, UniProt Q99741 1-560)
chain: MPQTRSQAQATISFPKRKLSRALNKAKNSSDAKLEPTNVQTVTCSPRVKALPLSPRKRLGDDNLCNTPHLPPCSPPKQGKKENGPPHSHTLKGRRLVFDNQLTIKSPSKRELAKVHQNKILSSVRKSQEITTNSEQRCPLKKESACVRLFKQEGTCYQQAKLVLNTAVPDRLPAREREMDVIRNFLREHICGKKAGSLYLSGAPGTGKTACLSRILQDLKKELKGFKTIMLNCMSLRTAQAVFPAIAQEICQEEVSRPAGKDMMRKLEKHMTAEKGPMIVLVLDEMDQLDSKGQDVLYTLFEWPWLSNSHLVLIGIANTLDLTDRILPRLQAREKCKPQLLNFPPYTRNQIVTILQDRLNQVSRDQVLDNAAVQFCARKVSAVSGDVRKALDVCRRAIEIVESDVKSQTILKPLSECKSPSEPLIPKRVGLIHISQVISEVDGNRMTLSQEGAQDSFPLQQKILVCSLMLLIRQLKIKEVTLGKLYEAYSKVCRKQQVAAVDQSECLSLSGLLEARGILGLKRNKETRLTKVFFKIEEKEIEHALKDKALIGNILATGLP
